Cleaved PARP after 72 h of treatment

Values as published with doi:10.1371/journal.pone.0140310, rounded.

First drug in all entries: L-779450, 1 µM, Oc1cc(-c2nc(-c3ccccc3)[nH]c2-c2ccncc2)ccc1Cl

Compounds and concentrations:
KU-55933: O=c1cc(-c2cccc3c2Sc2ccccc2S3)oc(N2CCOCC2)c1 at 5 µM
A-769662: N#Cc1c(O)c2c(-c3ccc(-c4ccccc4O)cc3)csc2[nH]c1=O at 10 µM
CHIR-265: Cn1c(Nc2ccc(C(F)(F)F)cc2)nc2cc(Oc3ccnc(-c4ncc(C(F)(F)F)[nH]4)c3)ccc21 at 0.4 µM
BI-78D3: O=c1[nH]nc(Sc2ncc([N+](=O)[O-])s2)n1-c1ccc2c(c1)OCCO2 at 1 µM
dovitinib: CN1CCN(c2ccc3nc(-c4c(N)c5c(F)cccc5[nH]c4=O)[nH]c3c2)CC1 at 0.5 µM
nilotinib: Cc1cn(-c2cc(NC(=O)c3ccc(C)c(Nc4nccc(-c5cccnc5)n4)c3)cc(C(F)(F)F)c2)cn1 at 1 µM
tozasertib: Cc1cc(Nc2cc(N3CCN(C)CC3)nc(Sc3ccc(NC(=O)C4CC4)cc3)n2)n[nH]1 at 0.03 µM
PF-04217903: OCCn1cc(-c2cnc3nnn(Cc4ccc5ncccc5c4)c3n2)cn1 at 5 µM

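Human melanoma cell lines in 1,536-well plates were treated with two drugs together for 72 h, then fixed, stained and imaged. The read-out is the fraction of cleaved-PARP-positive nuclei, in % of that fraction in the DMSO control; 200 means twice the control level of this apoptosis marker. Every drug was used at one fixed concentration, the higher of two screened. No replicate spread is given; individual values may be noisy. The marker varies much from line to line, for technical or biological reasons.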 An unselected part of the screen is shown. An entry leaves out what has no value listed here.

{"second drug": "PF-04217903", "A375": 118, "LB2518-MEL": 63.3, "WM115": 313, "WM3619": 256, "G-361": 113, "MeWo": 87.7, "UACC-62": 147, "WM1716": 38.4, "MZ2-MEL": 40.5, "LOX IMVI": 150, "A2058": 146, "501mel": 71.3, "C32": 215, "WM451Lu": 279, "SK-MEL-5": 75.9, "MEL-HO": 64.3, "COLO 829": 116, "COLO 800": 117, "SK-MEL-28": 145, "WM3526": 248, "SK-MEL-30": 46.0, "COLO 792": 106, "WM1745": 212, "IPC-298": 39.9, "IST-MEL1": 68.6, "SK-MEL-2": 265, "RPMI-7951": 120, "UACC-257": 26.6, "A101D": 86.7, "RVH-421": 167}
{"second drug": "tozasertib", "A375": 302, "LB2518-MEL": 36.4, "WM115": 262, "WM3619": 114, "G-361": 244, "MeWo": 92.6, "UACC-62": 419, "WM1716": 76.9, "MZ2-MEL": 46.5, "LOX IMVI": 216, "A2058": 187, "501mel": 115, "C32": 306, "WM451Lu": 882, "SK-MEL-5": 58.6, "MEL-HO": 94.3, "COLO 829": 252, "COLO 800": 211, "SK-MEL-28": 109, "WM3526": 571, "SK-MEL-30": 81.4, "COLO 792": 69.8, "IPC-298": 116, "IST-MEL1": 351, "SK-MEL-2": 487, "RPMI-7951": 108, "UACC-257": 35.2, "A101D": 375, "RVH-421": 115}
{"second drug": "CHIR-265", "A375": 205, "LB2518-MEL": 199, "WM115": 1220, "WM3619": 668, "G-361": 1270, "MeWo": 52.6, "UACC-62": 242, "WM1716": 118, "MZ2-MEL": 83.9, "LOX IMVI": 94.0, "A2058": 323, "501mel": 436, "C32": 1850, "WM451Lu": 1010, "SK-MEL-5": 231, "MEL-HO": 66.2, "COLO 829": 689, "COLO 800": 51.9, "SK-MEL-28": 460, "WM3526": 1390, "SK-MEL-30": 112, "COLO 792": 703, "WM1745": 210, "IPC-298": 293, "IST-MEL1": 149, "SK-MEL-2": 1200, "RPMI-7951": 140, "UACC-257": 69.7, "A101D": 632, "RVH-421": 347}
{"second drug": "KU-55933", "A375": 143, "LB2518-MEL": 189, "WM115": 345, "WM3619": 140, "G-361": 55.4, "MeWo": 35.0, "UACC-62": 317, "WM1716": 141, "MZ2-MEL": 57.9, "LOX IMVI": 83.7, "A2058": 77.7, "501mel": 84.5, "C32": 384, "WM451Lu": 144, "SK-MEL-5": 121, "MEL-HO": 112, "COLO 829": 145, "COLO 800": 66.5, "SK-MEL-28": 129, "WM3526": 139, "SK-MEL-30": 40.3, "COLO 792": 81.9, "WM1745": 165, "IPC-298": 83.1, "IST-MEL1": 295, "SK-MEL-2": 676, "RPMI-7951": 61.6, "UACC-257": 16.2, "A101D": 108, "RVH-421": 75.4}
{"second drug": "nilotinib", "A375": 132, "LB2518-MEL": 348, "WM115": 68.6, "WM3619": 104, "G-361": 166, "MeWo": 38.1, "UACC-62": 486, "WM1716": 167, "MZ2-MEL": 65.8, "LOX IMVI": 176, "A2058": 165, "501mel": 48.2, "C32": 293, "WM451Lu": 1220, "SK-MEL-5": 198, "MEL-HO": 173, "COLO 829": 169, "COLO 800": 70.0, "SK-MEL-28": 80.8, "WM3526": 328, "SK-MEL-30": 42.5, "COLO 792": 103, "IPC-298": 109, "IST-MEL1": 69.7, "SK-MEL-2": 356, "RPMI-7951": 64.4, "UACC-257": 61.1, "A101D": 379, "RVH-421": 46.7}
{"second drug": "dovitinib", "A375": 513, "LB2518-MEL": 172, "WM115": 500, "WM3619": 158, "G-361": 310, "MeWo": 223, "UACC-62": 292, "WM1716": 118, "MZ2-MEL": 112, "LOX IMVI": 240, "A2058": 642, "501mel": 54.2, "C32": 138, "WM451Lu": 344, "SK-MEL-5": 324, "MEL-HO": 225, "COLO 829": 254, "COLO 800": 111, "SK-MEL-28": 72.3, "WM3526": 330, "SK-MEL-30": 73.7, "COLO 792": 99.4, "IPC-298": 141, "IST-MEL1": 222, "SK-MEL-2": 227, "RPMI-7951": 208, "UACC-257": 114, "A101D": 1060, "RVH-421": 618}
{"second drug": "A-769662", "A375": 96.3, "LB2518-MEL": 154, "WM115": 138, "WM3619": 123, "G-361": 217, "MeWo": 83.3, "UACC-62": 139, "WM1716": 68.5, "MZ2-MEL": 95.6, "LOX IMVI": 102, "A2058": 172, "501mel": 41.3, "C32": 97.3, "WM451Lu": 260, "SK-MEL-5": 68.4, "MEL-HO": 43.1, "COLO 829": 66.6, "COLO 800": 107, "SK-MEL-28": 75.4, "WM3526": 113, "SK-MEL-30": 72.8, "COLO 792": 55.9, "WM1745": 148, "IPC-298": 98.7, "IST-MEL1": 125, "SK-MEL-2": 336, "RPMI-7951": 72.0, "UACC-257": 15.0, "A101D": 113, "RVH-421": 153}
{"second drug": "BI-78D3", "A375": 270, "LB2518-MEL": 160, "WM115": 196, "WM3619": 122, "G-361": 61.6, "MeWo": 93.1, "UACC-62": 263, "WM1716": 139, "MZ2-MEL": 80.9, "LOX IMVI": 131, "A2058": 125, "501mel": 182, "C32": 96.2, "WM451Lu": 686, "SK-MEL-5": 133, "MEL-HO": 138, "COLO 829": 263, "COLO 800": 140, "SK-MEL-28": 130, "WM3526": 203, "SK-MEL-30": 125, "COLO 792": 62.9, "IPC-298": 104, "IST-MEL1": 47.1, "SK-MEL-2": 903, "RPMI-7951": 79.8, "UACC-257": 61.3, "A101D": 563, "RVH-421": 201}